Results taken from PMC8259959.
No constants are given. Whether binding was seen depends on the method and setting. Binding seen in cells or lysates may run through a third protein. Some binding calls cover weakened binding; strength is not graded here.

The chains behind the UniProt entries cited, without tags or fusion partners. Where a name states a change or a piece, a line headed by the entry shows the natural chain unless it says otherwise. Residues count along the entry.
UniProt Q29443, residues 20-704: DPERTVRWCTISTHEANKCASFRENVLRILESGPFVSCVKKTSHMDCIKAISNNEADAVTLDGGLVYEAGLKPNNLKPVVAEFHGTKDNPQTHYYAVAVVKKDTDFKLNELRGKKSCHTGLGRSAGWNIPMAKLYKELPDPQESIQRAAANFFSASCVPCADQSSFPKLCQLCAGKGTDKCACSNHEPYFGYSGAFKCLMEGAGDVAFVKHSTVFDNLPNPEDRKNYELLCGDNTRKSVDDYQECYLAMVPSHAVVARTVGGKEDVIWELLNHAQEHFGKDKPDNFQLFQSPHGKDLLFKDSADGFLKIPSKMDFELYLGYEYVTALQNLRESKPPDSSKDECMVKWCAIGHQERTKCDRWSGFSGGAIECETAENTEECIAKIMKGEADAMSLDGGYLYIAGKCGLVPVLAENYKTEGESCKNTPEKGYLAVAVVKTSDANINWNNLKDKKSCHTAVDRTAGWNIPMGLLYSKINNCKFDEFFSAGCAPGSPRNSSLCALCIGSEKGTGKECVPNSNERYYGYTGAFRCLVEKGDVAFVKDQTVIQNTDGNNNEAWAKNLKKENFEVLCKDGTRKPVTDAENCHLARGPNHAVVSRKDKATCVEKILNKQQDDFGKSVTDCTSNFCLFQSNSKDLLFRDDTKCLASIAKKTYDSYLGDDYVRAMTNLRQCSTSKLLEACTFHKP
UniProt Q8WPU1: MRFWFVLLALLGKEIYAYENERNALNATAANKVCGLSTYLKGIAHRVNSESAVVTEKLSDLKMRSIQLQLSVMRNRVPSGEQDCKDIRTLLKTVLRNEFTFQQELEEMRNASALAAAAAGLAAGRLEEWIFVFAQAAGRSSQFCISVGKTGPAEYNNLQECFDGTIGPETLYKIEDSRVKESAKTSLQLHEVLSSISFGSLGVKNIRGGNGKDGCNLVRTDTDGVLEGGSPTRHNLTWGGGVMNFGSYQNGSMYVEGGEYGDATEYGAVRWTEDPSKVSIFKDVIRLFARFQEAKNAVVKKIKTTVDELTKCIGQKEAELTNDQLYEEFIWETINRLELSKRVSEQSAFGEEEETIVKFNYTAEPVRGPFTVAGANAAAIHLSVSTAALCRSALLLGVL

Biological target: holo-transferrin (UniProt Q29443)
Assay: pull-down; holo-Tf conjugated beads; lysates of TfR RNAi cells, un-induced (tet -) or induced (tet +), at time points; detection by anti-TfR blot; only the target purified

Question: With “Trypanosoma brucei transferrin receptor (TfR), heterodimer of ESAG6 and ESAG7 (from UniProt Q8WPU1 18-376; Q8WPU2 18-338) (complex)” as the substance, how does the binding read?
Answer: binds
